PMC12040169 (PLOS Biology, 2025)
The list shows a part of the results.

Test system: T1, CTL2-GFP (C. trachomatis L2/434/Bu, GFP-expressing)
T1 construct: L2/434/Bu, GFP-expressing
Set-up: species or system HeLa; Intracellular C. trachomatis growth in HeLa cells, bulk GFP fluorescence relative to DMSO
Details: bulk GFP, single well; 28.5 h, 10 µM; inhibitor

Point of comparison: `Cc1nnc(-c2cccc(S(=O)(=O)Nc3nnc(C(F)(F)F)s3)c2)o1` [CBK062014], “% of control remaining” value 110.921%. Against it:
- CCOC(=O)C1CCN(S(=O)(=O)c2ccc(OC)c(C)c2C)CC1 [CBK268955] — higher, 140.53%
- Cc1cc(-c2nn3c(-c4ccccc4)nnc3s2)c2ccccc2n1 [CBK267187] — higher, 134.912%
- OCc1ccc(-c2cncc(-c3ccc(O)cc3)n2)cc1 [CBK123792] — higher, 143.591%
- CCCOc1ccc(CCNc2ncnc(N)n2)cc1 [CBK262744] — lower, 89.9856%
- O=C(O)c1ccc2[nH]c3c(c2c1)CCCC3 [CBK001252] — higher, 115.439%
- Cc1ccc(OCC(=O)NNC(=O)c2ccco2)cc1 [CBK261800] — higher, 116.35%
- O=C(O)CCN/C(=N\S(=O)(=O)c1ccccc1)c1ccccc1 [CBK266111] — higher, 162.602%
- CC1CCN(Cn2nc(COc3ccccc3)n(-c3ccccc3)c2=S)CC1 [CBK264247] — higher, 130.617%
- O=C(Oc1cccc(-c2cnc3ccccc3n2)c1)c1ccc(S(=O)(=O)N2CCCCC2)cc1 [CBK267785] — higher, 126.494%
- O=C(Nc1cc(Oc2cccnc2)cc([N+](=O)[O-])c1)c1cc2nc(-c3ccco3)cc(C(F)(F)F)n2n1 [CBK262534] — lower, 91.3818%
- CCOC(=O)c1c(NC(=O)CSc2n[nH]c(N)n2)sc(C)c1C [CBK266412] — lower, 110.323%
- Cc1ccc(-n2nc(C(=O)O)c(C)c(C#N)c2=O)cc1C [CBK286987] — higher, 139.407%
- O=C(O)CSc1nnc(SCc2cccc3ccccc23)s1 [CBK266215] — higher, 151.726%
- C/C(=N/NC(=O)C[N+](C)(C)C)c1nn(-c2ccc(Cl)cc2)nc1C [CBK008258C] — lower, 102.977%
- O=C(NCc1cc[nH]n1)N1CCCN(Cc2cccs2)CC1 [CBK305645] — higher, 120.287%
- COc1ccccc1-c1cnc2[nH]c(=O)n(Cc3ccc(F)c(Cl)c3)c2n1 [CBK064662] — higher, 121.902%
- CCN(CC)CCN(C(=O)N1CCCC1)c1c(C)cccc1C [CBK023237C] — higher, 117.823%
- NS(=O)(=O)c1ccc(CCNC(=O)c2cccnc2)cc1 [CBK268158] — higher, 118.041%
- CCOc1cccc(-c2cn3ccnc3c(NCCc3ccccn3)n2)c1 [CBK066586] — higher, 186.193%
- O=C(C1=C(O)C(=O)N(CCCN2CCOCC2)C1c1ccccn1)c1ccc(Cl)cc1 (stereo not shown) [CBK266445] — higher, 110.986%
- CC(C)(C)NC(=O)CN1C(=O)N2CCCN=C2c2ccc(Cl)cc21 [CBK284391] — higher, 117.622%
